Measurements as given in patent US6875773B1, “Combination therapy for treatment of FIV infection” (priority 1998, dated 2005).
For some of these results: At least one compound was matched to its structure with a doubt left. Some entries share one result that the patent states for a list of compounds.

Key:
Assay type in all cases: cell-based, Feline immunodeficiency virus
FIVBang [1] = experiment: Anti-FIV activity (RT activity) in primary cat PBMC infected with FIVBang; details: FIVBang 100 TCID50, drug added immediately before inoculation, nontoxic doses
Procedure: Nucleoside analogue and PI doses were 0.1 μM in Experiment 1 (panel A) and 0.05 μM and 0.01 μM, respectively, in Experiment 2 (panel B).
(§1) As a means to simulate in vivo conditions, primary peripheral blood mononuclear cells (PBMC) from specific pathogen free (SPF) cats were next used as the indicator cells. Primary PBMC isolated by ficoll hypaque method were stimulated with concanavalin A for 3 days and cultured for an additional 2 weeks before their use in drug studies (Staszewski, 1995). Antiretroviral drug(s) were added to the PBMC cultures (1×10^6 cells/ml) immediately before FIVBang, (subtype B) or FIVUK-8(subtype A) inoculation of 100 50% tissue culture infectious dose (TCID50).

FIVUK-8 = experiment: Anti-FIV activity (RT activity) in primary cat PBMC infected with FIVUK-8; details: FIVUK-8 100 TCID50, drug added immediately before inoculation, nontoxic doses
Procedure: Nucleoside analogue and P1 doses were 0.1 μM and 0.01-0.5 μM, respectively, in Experiment 1 (panel A) and 0.05 μM and 0.01-0.5 μM respectively, in Experiment 2 (panel B).
as §1

FIVPet = experiment: Anti-FIV activity (RT activity in supernatant) in feline T-cell line chronically infected with FIVPet (FL-4 cells); details: treated for 3 weeks, nontoxic doses
Procedure: (§2) The antiviral activity of the drugs at noncytotoxic doses were evaluated in feline T-cell lines chronically infected with either FIVPet (subtype A strain) (panel A), or FIVBang (subtype B strain) (panel B). The RT data are presented as % control, whereby % control represents RT mean of triplicate treated cultures divided by RT mean of triplicate untreated cultures and multiplied by 100. The RT data on harvest days at 6, 9, and 12 are shown.
(§3) In the first set of in vitro studies, feline T-cell lines chronically infected with FIVPet, (FL-4 cells) or FIVBang, (FIVBang/FeT-J cells) at 2×10^5 cells/ml were treated for 3 weeks with a single drug or various combinations of AZT, 3TC, an FIV protease inhibitor (FIV-PI; Hoescht-Bayer HBY-793), and HIV protease inhibitors (HIV-PI) (FIGS. 1A and 1B). Saquinavir (SQV) and Indinavir (IDV) were used as the HIV-PIs. […] Viral replication was determined by measuring the levels of reverse transcriptase (RT) activity in the culture supernatants (Rey et al., 1984). Drug toxicity in these cultures were monitored by viability and absolute cell count analyses using trypan blue exclusion method (Mishell et al., 1980).
(§4) Single and combination drug doses which were determined to be nontoxic to the test cells were used in these studies.

FIVBang [2] = experiment: Anti-FIV activity (RT activity in supernatant) in feline T-cell line chronically infected with FIVBang (FIVBang/FeT-J cells); details: treated for 3 weeks, nontoxic doses
Procedure: as §2, §3, §4

Nc1ccn([C@@H]2CS[C@H](CO)O2)c(=O)n1 [3TC, lamivudine]
FIV replication in PBMC (RT activity), result in words (FIVBang [1]): inhibited the FIV replication in PBMC | FIV replication in PBMC (RT activity), result in words (FIVUK-8): inhibited the FIV replication in PBMC | inhibition of RT activity / FIV replication (FIVPet): 0-10% | inhibition of RT activity / FIV replication (FIVBang [2]): 20-50%
